{
  "sequences": {"note": "Sequences of proteins named here, by UniProt entry; tags and fusion partners are left off. A change or cut given only in a name is not applied to a line headed by its entry.", "UniProt Q2TBP0": "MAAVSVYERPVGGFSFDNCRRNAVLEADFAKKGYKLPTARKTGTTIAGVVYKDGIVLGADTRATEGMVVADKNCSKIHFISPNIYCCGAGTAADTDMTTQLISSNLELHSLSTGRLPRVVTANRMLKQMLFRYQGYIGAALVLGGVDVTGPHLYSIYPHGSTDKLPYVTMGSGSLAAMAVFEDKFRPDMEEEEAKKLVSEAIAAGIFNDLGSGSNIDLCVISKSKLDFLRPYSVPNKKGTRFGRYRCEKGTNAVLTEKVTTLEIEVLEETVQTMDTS", "UniProt Q3MHN0": "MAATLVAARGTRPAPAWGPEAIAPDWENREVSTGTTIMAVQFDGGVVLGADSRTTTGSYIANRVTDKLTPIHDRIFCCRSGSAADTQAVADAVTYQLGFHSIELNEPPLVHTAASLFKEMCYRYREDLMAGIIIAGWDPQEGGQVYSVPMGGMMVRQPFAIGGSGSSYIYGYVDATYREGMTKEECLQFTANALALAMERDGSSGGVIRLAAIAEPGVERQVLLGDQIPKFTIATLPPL", "UniProt P33672": "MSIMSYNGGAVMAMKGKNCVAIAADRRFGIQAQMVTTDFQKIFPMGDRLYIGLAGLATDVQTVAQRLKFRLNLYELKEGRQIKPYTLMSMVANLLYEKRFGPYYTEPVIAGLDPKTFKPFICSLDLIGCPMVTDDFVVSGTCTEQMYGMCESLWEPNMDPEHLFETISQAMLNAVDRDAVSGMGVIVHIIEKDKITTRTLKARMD"},
  "source": "patent US6781000B1",
  "about": "“Alpha-ketoamide inhibitors of 20S proteasome” (CV Theurapeutics, Inc., priority 1998, dated 2004)",
  "key": {"[1]": {"molecular_target": "T1, peptidylglutamyl activity of 20S proteasome (Bos taurus, UniProt Q2TBP0+Q3MHN0)", "T1 construct": "was purified to homogeneity from bovine brain according to published methods; from tissue; host or cells: bovine brain", "experiment": "20S proteasome peptidylglutamyl activity inhibition assay (CBZ-D-Ala-Leu-Glu-AMC cleavage)", "type": "biochemical", "settings": "Example 6: 2 μg 20S proteasome from bovine brain, substrate CBZ D-Ala-Leu-Glu-AMC, 15 minutes at 37° C.", "experimental": "Compounds of this invention prepared according to the method of Example 1 were also tested as follows. The 20S catalytic subunit of the proteasome (also known as the multicatalytic proteinase complex) was purified to homogeneity from bovine brain according to published methods (Wilk S. and Orlowski, M. 1983, 40 842 J. Neurochem). […] of the complex is measured by the increase in fluorescence following cleavage of the substrate peptide CBZ D-Ala-Leu-Glu-(7-amino-4-methyl coumarin). The standard in vitro assay consists of 2 μg 20S proteasome, 0.1-100 μg/ml proteasome inhibitor in […] 50 mM HEPES, containing 0.1% sodium dodecyl sulphate, pH 7.5. The proteolytic reaction is initiated by the addition of […] fluorogenic peptide substrate and allowed to progress for 15 minutes at 37° C. The reaction is terminated by the addition of […] 100 mM acetate buffer, pH 4.0. The rate of proteolysis is directly proportional to the amount of liberated aminomethylcoumarin which is measured by fluorescent spectroscopy (EX 370 nm, EM 430 nm). Compounds 1-207 were tested for peptidylglutamyl activity inhibition at >10 μg/mL. Compound 190 was active at 5 μg/mL."}, "[2]": {"molecular_target": "T2, tryptic activity of 20S proteasome (Bos taurus, UniProt P33672+Q2TBP0)", "T2 construct": "was purified to homogeneity from bovine brain according to published methods; from tissue; host or cells: bovine brain", "experiment": "20S proteasome tryptic activity inhibition assay (CBZ-D-Ala-Leu-Arg-AMC cleavage)", "type": "biochemical, bovine", "settings": "15 minutes at 37° C."}},
  "note": "Some results were stated once for a whole list of compounds, not compound by compound.",
  "data": [
    {"smiles": "CC(C)CC(NC(=O)C(=O)Cc1c[nH]c2ccccc12)C(=O)NC(CC(C)C)C(=O)NC(C)C(=O)O", "note": "(stereo not drawn) [Compound 20]", "values": [
      {"measurement": "peptidylglutamyl activity inhibition, active at", "setting": "[1]", "result": "> 10", "unit": "µg/mL"},
      {"measurement": "tryptic activity inhibition, active as inhibitors at", "setting": "[2]; Example 4: 2 μg 20S proteasome from bovine brain, substrate CBZ-D-Ala-Leu-Arg-AMC", "result": "> 10", "unit": "µg/mL"},
      {"measurement": "tryptic activity inhibition, active as inhibitors at", "setting": "[2]; Example 5: 20 μg 20S proteasome from bovine brain, substrate CBZ D-Ala-Leu-Arg-AMC", "result": "> 10", "unit": "µg·mL"}
    ]}
  ]
}
